Among the data in PMC6135852 are binding values, retold here.

Holding throughout (assay): two-hybrid; bacterial adenylate cyclase two-hybrid (T25 bait and T18 prey fusions) in cya mutant E. coli BTH101; spotted on X-gal indicator plates with 0.5 mM IPTG, 5 days at 18 °C; blue after 2 to 4 days = interaction, slight colour change after 5 days = weak; each combination tested at least three times
The target of experiment [1] is phosphatase Stp (S. aureus NewmanHG).
In experiment [2] the target is serine/threonine kinase Stk (S. aureus NewmanHG).
In experiment [3] the target is FemA (S. aureus NewmanHG).
Experiment [4] deals with FemB (S. aureus NewmanHG).
Experiment [5] addresses lipid II:glycine glycyltransferase FemX (S. aureus NewmanHG).

These are yes or no findings as the source states them, for the method shown. For part of these data: Binding calls can cover weak binding; strength is not graded here.

B1: cell wall hydrolase SsaA (enzyme, UniProt Q2FV55 1-255)
chain: MKKIVTATIATAGLATIAFAGHDAQAAEQNNNGYNSNDAQSYSYTYTIDAQGNYHYTWTGNWNPSQLTQNNTYYYNNYNTYSYNNASYNNYYNHSYQYNNYTNNSQTATNNYYTGGSGASYSTTSNNVHVTTTAAPSSNGRSISNGYASGSNLYTSGQCTYYVFDRVGGKIGSTWGNASNWANAAASSGYTVNNTPKVGAIMQTTQGYYGHVAYVEGVNSNGSVRVSEMNYGHGAGVVTSRTISANQAGSYNFIH
As for B1, the binding result in experiment [1] and in experiment [2] was “no binding” throughout.

B2: cell wall hydrolase LytH (enzyme, UniProt O32421 1-291)
chain: MKKIEAWLSKKGLKNKRTLIVVIAFVLFIIFLFLLLNSNSEDSGNITITENAELRTGPNAAYPVIYKVEKGDHFKKIGKVGKWIEVEDTSSNEKGWIAGWHTNLDIVADNTKEKNPLQGKTIVLDPGHGGSDQGASSNTKYKSLEKDYTLKTAKELQRTLEKEGATVKMTRTDDTYVSLENRDIKGDAYLSIHNDALESSNANGMTVYWYHDNQRALADTLDATIQKKGLLSNRGSRQENYQVLRQTKVPAVLLELGYISNPTDETMIKDQLHRQILEQAIVDGLKIYFSA
Regarding B2, the binding result in experiment [3] is on record as “binds”; in experiment [4], “binds”; in experiment [1] it was “no binding”; in experiment [2] it was “binds”.

B3: glycosyltransferase RodA (enzyme, UniProt A0ABV4SE60 1-398)
chain: MAGTNGFSVSGYGPERSTLSRLMARDSVIRRLDWPILLSSLALSLIGSALVYSATRNRTVINQGDPYYFLFRHLMNTGIGLALMIGTIWLGHRTLRTVVPILYGASVFLMLLVLTPLGDTINGQRNWLSAGGVSLQPAEFAKITIILGMAMLLASRVDAGDKQYPDHRTVLQALGLAAVPMLVVLLMPDLGTIMVAVVIVLGVLLASGASNRWVFGLLGTGALGAVAVWKLGVLDEYQIARFAAFANPALDPAGVGYNTNQARIAIGSGGLTGTGLFHGSQTTGQFVPEQQTDFVFTVAGEELGFAGAGLILLLLAVVLWRACRIARETTELYGTIVAAGIIAWFAFQAFENIGMTLGIMPVAGLPLPFVSYGGSSMFAVWVAIGLLQSIRVQRPMSA
On to B3, for which the binding entry in experiment [3] was “binds”; in experiment [4], “binds”; in experiment [5], “binds weakly”; in experiment [1], “no binding”; in experiment [2], “binds”.

B4: glycosyltransferase FtsW (enzyme, UniProt A0ABV4SSA3 1-437)
chain: MPGSSARAARRPPAARPPKKPARAARVSPVRRLYTQARRAWDRPLTAYYLILGSSLLITVLGLVMVYSASMITALQNGLPSSYYFRKQFLAAAIGGALLFAAMRMPVKLHRALAYPLLAGSVFLMVLVQVPGIGVSIGGNQNWISLGGPFMLQPSEFGKLALVLWGADLMARKHDKRLLSQWKHMLVPLVPVAFLLLGLIMLGGDMGTAILLTAILFGLLWLAGAPTRLFVGVLSVAAAIGAFLIKTSPNRMARLSCLGSTDAGPDDICWQGLHGIYALASGGFFGSGLGASVEKWGQLPEAHTDFIFAVTGEELGLAGTLSVLALYAALGYAGIRVAGRTEDPFVRYAAGGVTTWITAQAVVNLGAVLGLLPIAGVPLPLFSYGGSALLPTMFAVGLLIAFARDEPAARAALAMRQPRMRWNTMRRRATARTSGER
For B4, the binding entry is “binds” in experiment [3], “binds” in experiment [4], “no binding” in experiment [1] and “binds” in experiment [2].
